Primary screen of a compound library

By UniProt entry, the sequences of proteins in these tests, tags left out. Residues count along the entry.
UniProt P9WNZ1, whole entry: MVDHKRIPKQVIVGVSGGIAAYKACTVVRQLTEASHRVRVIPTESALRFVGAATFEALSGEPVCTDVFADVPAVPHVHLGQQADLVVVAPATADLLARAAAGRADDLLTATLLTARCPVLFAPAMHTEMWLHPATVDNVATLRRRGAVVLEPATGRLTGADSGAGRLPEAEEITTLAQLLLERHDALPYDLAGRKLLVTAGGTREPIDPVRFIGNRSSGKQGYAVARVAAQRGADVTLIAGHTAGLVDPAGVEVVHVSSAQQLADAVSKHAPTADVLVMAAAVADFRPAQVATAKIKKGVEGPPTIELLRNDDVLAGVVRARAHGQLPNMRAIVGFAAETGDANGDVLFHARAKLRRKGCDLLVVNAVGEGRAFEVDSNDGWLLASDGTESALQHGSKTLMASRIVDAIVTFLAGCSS
UniProt P9WFT3, whole entry: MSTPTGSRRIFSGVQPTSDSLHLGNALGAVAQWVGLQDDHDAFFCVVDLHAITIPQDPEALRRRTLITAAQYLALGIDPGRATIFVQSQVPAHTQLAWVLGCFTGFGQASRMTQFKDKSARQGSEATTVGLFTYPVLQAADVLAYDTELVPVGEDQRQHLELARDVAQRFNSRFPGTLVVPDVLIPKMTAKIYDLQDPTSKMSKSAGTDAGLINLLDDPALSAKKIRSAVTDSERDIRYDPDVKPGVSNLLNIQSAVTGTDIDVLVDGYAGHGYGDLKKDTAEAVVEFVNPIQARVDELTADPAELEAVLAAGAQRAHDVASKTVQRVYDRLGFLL
UniProt P9WPC5, whole entry: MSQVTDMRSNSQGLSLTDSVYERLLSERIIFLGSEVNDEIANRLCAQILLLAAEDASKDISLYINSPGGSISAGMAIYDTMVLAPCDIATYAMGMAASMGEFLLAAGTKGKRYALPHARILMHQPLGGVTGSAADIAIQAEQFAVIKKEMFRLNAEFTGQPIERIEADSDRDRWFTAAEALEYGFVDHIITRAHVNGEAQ
UniProt P9WPC3, whole entry partner: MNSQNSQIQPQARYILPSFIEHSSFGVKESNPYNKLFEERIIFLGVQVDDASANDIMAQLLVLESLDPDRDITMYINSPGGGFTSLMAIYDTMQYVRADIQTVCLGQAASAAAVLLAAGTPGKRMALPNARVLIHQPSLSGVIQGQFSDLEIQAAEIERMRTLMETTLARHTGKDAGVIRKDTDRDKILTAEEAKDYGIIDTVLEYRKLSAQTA
UniProt A4I591, 1-473: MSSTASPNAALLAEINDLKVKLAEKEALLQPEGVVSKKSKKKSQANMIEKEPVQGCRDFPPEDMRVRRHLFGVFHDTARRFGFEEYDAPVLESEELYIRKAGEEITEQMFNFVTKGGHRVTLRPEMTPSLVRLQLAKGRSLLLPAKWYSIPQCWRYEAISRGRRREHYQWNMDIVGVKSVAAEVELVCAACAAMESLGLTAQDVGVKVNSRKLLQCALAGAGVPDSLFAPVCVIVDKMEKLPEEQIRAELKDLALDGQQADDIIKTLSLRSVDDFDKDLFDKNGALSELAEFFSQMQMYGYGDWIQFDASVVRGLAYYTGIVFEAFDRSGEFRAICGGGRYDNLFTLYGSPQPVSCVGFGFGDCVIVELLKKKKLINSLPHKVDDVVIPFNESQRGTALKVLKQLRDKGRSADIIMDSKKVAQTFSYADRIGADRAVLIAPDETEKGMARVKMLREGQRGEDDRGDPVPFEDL
UniProt Q4DA54, 1-478: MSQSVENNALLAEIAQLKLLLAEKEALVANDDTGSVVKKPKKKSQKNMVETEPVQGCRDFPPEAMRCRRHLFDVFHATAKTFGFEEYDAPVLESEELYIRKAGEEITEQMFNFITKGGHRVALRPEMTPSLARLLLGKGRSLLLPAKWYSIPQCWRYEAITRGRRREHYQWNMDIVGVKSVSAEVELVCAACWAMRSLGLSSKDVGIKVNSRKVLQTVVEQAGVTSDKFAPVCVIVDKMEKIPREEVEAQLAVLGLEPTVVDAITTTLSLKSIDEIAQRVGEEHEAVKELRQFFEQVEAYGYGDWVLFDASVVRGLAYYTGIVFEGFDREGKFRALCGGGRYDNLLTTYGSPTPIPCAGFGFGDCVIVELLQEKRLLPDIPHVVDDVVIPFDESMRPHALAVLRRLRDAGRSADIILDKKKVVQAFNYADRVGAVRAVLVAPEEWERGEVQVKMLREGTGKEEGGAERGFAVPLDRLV

A: 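Coenzyme A biosynthesis protein CoaBC, Mycobacterium tuberculosis (UniProt P9WNZ1). Enzyme assay of CoaBC with a phosphate dye (Biomol Green) read at 650 nm. Tested at 30 µM. Direction is inferred from only a few compounds that gave an IC50; most scored high, so higher reads as stronger inhibition. Most strong results did not repeat in a second test. Size under these conditions: about 67,000 compounds, about 40 of them at 50% or above in at least one test.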
B: 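Tryptophan-tRNA ligase, Mycobacterium tuberculosis (UniProt P9WFT3). Enzyme assay of tryptophanyl-tRNA synthetase; the read-out is not stated. Tested at 10 µM. Higher most likely means stronger inhibition; the record gives no direction and few retests gave an IC50. About 65,000 compounds were tested under these conditions; 0.098% (about 64) showed 50% or more at least once.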
C: 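ClpP1P2, Mycobacterium tuberculosis (UniProt P9WPC5 and UniProt P9WPC3). Protease assay of ClpP1P2, read by the AMC dye that it sets free. Compounds at 50 µM. Higher reads as stronger inhibition, judged from the few compounds that gave an IC50. Most other retested compounds had strongly negative values. Of about 69,000 compounds tested this way, about 10 (0.015%) reached 50% or more in at least one test.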
D: 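Histidine-tRNA ligase, Leishmania infantum (UniProt A4I591). Enzyme assay of histidyl-tRNA synthetase; the read-out is not stated. Concentration: 30 µM. The record gives no direction; compounds that gave an IC50 in retests scored well above the rest, so higher reads as stronger inhibition. The assay is labelled LdHisRS but filed under L. infantum. About 69,000 compounds were tested under these conditions; 0.6% (about 410) showed 50% or more at least once.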
E: 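Histidine-tRNA ligase, Trypanosoma cruzi CL Brener (UniProt Q4DA54). Enzyme assay of histidyl-tRNA synthetase; the read-out is not stated. Tested at 30 µM. The record gives no direction; compounds that gave an IC50 in retests scored well above the rest, so higher reads as stronger inhibition. Of about 69,000 compounds tested this way, about 31 (0.045%) reached 50% or more in at least one test.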

Results are given as percent effect. How 0% and 100% were set is not recorded. Most values in the screen are low, and negative values occur. The compounds are a random part of those screened. A dash means the value is not listed here; it may have been measured.

| # | compound | A | B | C | D | E |
|---|---|---|---|---|---|---|
| 1 | `COC(=O)CC(c1cnn(C)c1)c1oc(C)cc(=O)c1O` (configuration not stated) | -0.4386% | 1.42% | 2.335% | 3.81% | 7.438% |
| 2 | `COc1cccc2c1OCC(C(=O)N1CCN(C3CCSCC3)CC1)C2` (configuration not stated) | 3.257% | -1.812% | -8.773% | 8.8% | -0.5025% |
| 3 | `CC(C)(C)N1CC(C(=O)NCc2nc(C3CCCCC3)no2)CC1=O` (configuration not stated) | 0.2558% | 0.7874% | -8.931% | 16.39% | 6.061% |
| 4 | `CNC(=O)CS(=O)(=O)Cc1coc(-c2ccc(OC)cc2)n1` | -0.6397% | 0.0774% | 3.026% | 17.31% | 3.333% |
| 5 | `Cc1nn(C)c(C)c1C1CCCN1C(=O)c1ccc(C(N)=O)cn1` (configuration not stated) | -0.1245% | 0.2903% | -14.41% | 11.01% | 8.455% |
| 6 | `COc1cccc(C(C)N2CCN(S(=O)(=O)CCCF)CC2)c1` (configuration not stated) | - | 6.963% | 11.84% | -80.28% | 1.911% |
| 7 | `CCc1noc(C)c1C(=O)N1CCC2(CCCN(CC(C)(C)C)C2=O)C1` (configuration not stated) | 1.294% | -4.542% | -8.244% | 3.529% | 5.025% |
| 8 | `Cc1nccc(NCc2cc3n(n2)CCCN(S(C)(=O)=O)C3)n1` | 13.1% | 1.701% | -6.251% | 22.22% | 3.061% |
| 9 | `Cc1nc(CN2CCc3ncnc(C4CC4)c3CC2)cs1` | 3.046% | -3.868% | -6.32% | 0% | 4.926% |
| 10 | `O=C(Cc1cccnc1)N1CCC(c2nnc(-c3ccccn3)o2)CC1` | -6.905% | 3.034% | 7.66% | 9.859% | 7.576% |
| 11 | `Cc1noc(C)c1CN1CC[C@H]2OCC[C@@H](C(=O)NCC3CC3)[C@H]2C1` | 11.07% | 1.302% | -12.61% | 25.71% | 2.941% |
| 12 | `Cc1ccc(S(=O)(=O)N2C[C@H]3C[C@H](NC(=O)c4cc[nH]n4)[C@H]3C2)cc1` | -0.6196% | - | -1.034% | -2% | -2.247% |
| 13 | `COc1ccc(C(C)NC(=O)Nc2nccs2)cc1OC` (configuration not stated) | -0.2484% | -0.1652% | -6.581% | 11.11% | 0.5128% |
| 14 | `CCc1nnc(SC2CCCN(c3cccc(F)c3)C2=O)n1C` (configuration not stated) | 1.018% | -2.418% | -18.49% | 15.38% | 6.024% |
| 15 | `CC(c1cn2ccsc2n1)N1Cc2ncccc2C1=O` (configuration not stated) | 1.394% | -0.4182% | -19.91% | 8.861% | 5.603% |
| 16 | `COCCc1noc(-c2ccc(N[C@H]3CCCCNC3=O)nc2)n1` | 0.8032% | 0.8189% | -9.432% | 4.478% | 4.255% |
| 17 | `CS(=O)(=O)N[C@H]1CCO[C@]2(CCN(C(=O)c3ccccn3)C2)C1` | 1% | -0.3127% | -4.626% | 10% | 4.902% |
| 18 | `CCc1n[nH]c(SCC(=O)N2C[C@@H]3CC[C@H](C2)N(CC=C(C)C)C3)n1` | -1.615% | -2.46% | -19.87% | 19.17% | -2.899% |
| 19 | `COCCC1(CO)CCCN(Cc2ccc(F)c(C)c2)C1` (configuration not stated) | -2.643% | -2.012% | -6.599% | 7.547% | 5.085% |
| 20 | `O=C(C1CC1)N1CCC[C@]2(C[C@@H](OCc3ccncc3)CO2)C1` | 2.258% | -1.952% | -9.955% | 16.67% | 1.493% |
| 21 | `CSCC(=O)N(C)Cc1noc(-c2ccccc2)n1` | 2.265% | -0.6056% | 2.131% | 15.29% | 6.03% |
| 22 | `CC(C)(CNC(=O)C1CCCCN1S(C)(=O)=O)N1CCOCC1` (configuration not stated) | 9.856% | -1.712% | 1.871% | 14.58% | -2.532% |
| 23 | `CCOc1ccc(-n2nnc(C(=O)O)c2-c2ccncc2)cc1` | 5.803% | 3.708% | 7.563% | 28.57% | 1.087% |
| 24 | `NC(=O)c1csc(C(=O)N2CCCC(n3ccnc3)C2)c1` (configuration not stated) | 8.616% | -3.021% | 5.121% | 16.22% | 1.88% |
| 25 | `O=C(NCCCn1cccn1)N1CCCC1c1ccncc1` (configuration not stated) | -28.12% | -4.796% | 0.9368% | 0.9709% | 6.224% |
| 26 | `Cc1ccccc1-n1cc(-c2ccnc(NC(CO)C(C)C)n2)cn1` (configuration not stated) | 2.195% | -4.244% | -6.96% | 8.333% | 6.494% |
| 27 | `CC1CN(CC(=O)NCc2ccccc2)CCN1Cc1nccn1C` (configuration not stated) | 9.34% | 1.838% | -19.3% | 22.02% | 11.37% |
| 28 | `O=C(CN1C(=O)CCCc2sccc21)NC1CCc2nccn2C1` (configuration not stated) | 11.78% | 4.421% | 4.304% | 13.7% | 7.937% |
| 29 | `Cn1ccnc1C(=O)NCCS(=O)(=O)c1ccc(C(C)(C)C)cc1` | -2.41% | -1.729% | -6.535% | 16.42% | 4.255% |
| 30 | `Cc1cc(C)c2c(c1)NC(=O)C2CC(=O)O` (configuration not stated) | 0.7453% | 0.1651% | -11.42% | 1.587% | 4.615% |

For reference, 4 entries once more:

* O=C(Cc1cccnc1)N1CCC(c2nnc(-c3ccccn3)o2)CC1 | A: -6.905%; B: 3.034%; C: 7.66%; D: 9.859%; E: 7.576%
* COc1cccc2c1OCC(C(=O)N1CCN(C3CCSCC3)CC1)C2 (configuration not stated) | A: 3.257%; B: -1.812%; C: -8.773%; D: 8.8%; E: -0.5025%
* CC(c1cn2ccsc2n1)N1Cc2ncccc2C1=O (configuration not stated) | A: 1.394%; B: -0.4182%; C: -19.91%; D: 8.861%; E: 5.603%
* CC1CN(CC(=O)NCc2ccccc2)CCN1Cc1nccn1C (configuration not stated) | A: 9.34%; B: 1.838%; C: -19.3%; D: 22.02%; E: 11.37%

Data taken from ChEMBL document CHEMBL3988442, “University of Dundee, Small-Polar-MMV Screening Library” (2021).